Measured values published in patent US20120251444A1.
No constants are given. Whether binding was seen depends on the method and setting. Some results given as binding are weak or reduced against the parent protein; the word gives no strength.

The chains behind the UniProt entries cited, without tags or fusion partners. Where a name states a change or a piece, a line headed by the entry shows the natural chain unless it says otherwise. Residues count along the entry.
UniProt P98164, residues 1025-1102: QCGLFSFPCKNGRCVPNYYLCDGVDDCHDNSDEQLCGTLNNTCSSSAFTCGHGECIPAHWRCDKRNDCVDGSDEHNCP
UniProt Q07954, residues 852-973: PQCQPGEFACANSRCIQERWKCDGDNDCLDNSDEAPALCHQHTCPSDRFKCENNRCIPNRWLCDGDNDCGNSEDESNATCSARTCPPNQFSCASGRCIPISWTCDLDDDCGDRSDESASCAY
UniProt P30533: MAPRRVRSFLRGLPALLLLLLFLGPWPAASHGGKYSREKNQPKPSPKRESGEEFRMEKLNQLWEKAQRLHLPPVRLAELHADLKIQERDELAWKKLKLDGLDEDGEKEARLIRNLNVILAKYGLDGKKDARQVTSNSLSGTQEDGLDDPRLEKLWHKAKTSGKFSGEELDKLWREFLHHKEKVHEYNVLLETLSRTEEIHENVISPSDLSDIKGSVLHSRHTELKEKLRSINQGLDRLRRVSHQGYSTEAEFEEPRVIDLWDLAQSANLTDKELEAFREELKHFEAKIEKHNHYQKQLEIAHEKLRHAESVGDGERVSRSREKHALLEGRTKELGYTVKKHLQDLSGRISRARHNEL

How the values were obtained:
[1] = target: LRP2 CR89 (UniProt P98164); assay: binding titration on LRP2 CR89, absorbance against nM of ligand, fitted with a single binding site
[2] = target: LRP1 CR3-5 (UniProt Q07954); assay: binding titration on LRP1 CR3-5, absorbance against nM of ligand, fitted with a single binding site
[3] = target: LRP2 CR89 (UniProt P98164); assay: binding titration on LRP2 CR89, absorbance against nM of ligand

binding [2]	Substance	also measured
–	MegaRAP1 d3 Y249H (from UniProt P30533 234-357) (ligand)	binding [1]: binds
binds	RAP d3 (from UniProt P30533 234-357) (ligand)	–
binds	RAP d3 E217K (from UniProt P30533 234-357) (ligand)	–
binds	RAP d3 E251K (from UniProt P30533 234-357) (ligand)	–
–	RAP d3 E251K, K256A, K270E (from UniProt P30533 234-357) (ligand)	binding [1]: binds
–	RAP d3 E251K, K270E (from UniProt P30533 234-357) (ligand)	binding [3]: no binding (tested: 100 nM)
binds	RAP d3 H249Y (from UniProt P30533 234-357) (ligand)	–
